PubChem BioAssay AID504808 | Drosophila RNAi Screening Center – 2011
Screen: 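Chromatin factors that keep E2F targets switched off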 (primary screen). Cell system: Drosophila S2 cells. Reagents: long dsRNA against Drosophila genes. Measured: 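Firefly luciferase driven by E2F sites, normalised to Renilla luciferase on the same minimal promoter, measured by plate reader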. Direction: E2F firefly: higher = more E2F reporter activity; Renilla normaliser: higher = more normaliser reporter signal. Rule for the call: 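a knock-down counted as active when the firefly/Renilla E2F signal rose above 50%, a threshold chosen arbitrarily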.
The screen tested about 21,000 reagents; shown is an unselected part of those that have a named target and a result. Over the whole deposit, 18 (0.084%) are marked active. 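Raw counts without plate normalisation, one of two replicates; the ratio scores behind the calls were not deposited.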 The numbers tell different reagents against one gene apart. Names joined by + are all predicted targets of the reagent. Not given: the amount of reagent, the time to read-out.

Cad96Ca #1: E2F firefly, rep 1 = 1.17e5; Renilla normaliser, rep 1 = 5387; Outcome = inactive
Cad96Ca #2: E2F firefly, rep 1 = 1.10e5; Renilla normaliser, rep 1 = 6115; Outcome = inactive
Mtr3: E2F firefly, rep 1 = 1.08e5; Renilla normaliser, rep 1 = 7111; Outcome = inactive
Fst: E2F firefly, rep 1 = 75383; Renilla normaliser, rep 1 = 3136; Outcome = inactive
CG12170: E2F firefly, rep 1 = 58159; Renilla normaliser, rep 1 = 3170; Outcome = inactive
CG14947: E2F firefly, rep 1 = 97911; Renilla normaliser, rep 1 = 4392; Outcome = inactive
Gr59e: E2F firefly, rep 1 = 1.04e5; Renilla normaliser, rep 1 = 4596; Outcome = inactive

Laid out differently: entries from further up
| Target gene | reagent | E2F firefly, rep 1 | Renilla normaliser, rep 1 | Outcome |
| --- | --- | --- | --- | --- |
| CG12170 | 1 | 58159 | 3170 | inactive |
| CG14947 | 1 | 97911 | 4392 | inactive |
| Gr59e | 1 | 1.04e5 | 4596 | inactive |

The results go on.
Ada: E2F firefly, rep 1 = 1.25e5; Renilla normaliser, rep 1 = 4998; Outcome = inactive
Pp1-Y1: E2F firefly, rep 1 = 76768; Renilla normaliser, rep 1 = 2598; Outcome = inactive
Klp67A + CG34456: E2F firefly, rep 1 = 1.16e5; Renilla normaliser, rep 1 = 5000; Outcome = inactive
msk: E2F firefly, rep 1 = 84900; Renilla normaliser, rep 1 = 4233; Outcome = inactive
CG12715: E2F firefly, rep 1 = 1.48e5; Renilla normaliser, rep 1 = 6588; Outcome = inactive
CG8248: E2F firefly, rep 1 = 2739; Renilla normaliser, rep 1 = 180; Outcome = inactive
ppk28: E2F firefly, rep 1 = 1.51e5; Renilla normaliser, rep 1 = 6065; Outcome = inactive
CG6847 #1: E2F firefly, rep 1 = 82449; Renilla normaliser, rep 1 = 2680; Outcome = inactive
CG6847 #2: E2F firefly, rep 1 = 1.36e5; Renilla normaliser, rep 1 = 6575; Outcome = inactive
Grip75: E2F firefly, rep 1 = 1.50e5; Renilla normaliser, rep 1 = 5302; Outcome = inactive
odd: E2F firefly, rep 1 = 1.16e5; Renilla normaliser, rep 1 = 110; Outcome = inactive
Eip74EF #1: E2F firefly, rep 1 = 50032; Renilla normaliser, rep 1 = 3475; Outcome = inactive
Eip74EF #2: E2F firefly, rep 1 = 1.43e5; Renilla normaliser, rep 1 = 7009; Outcome = inactive
